A short description of this data set: Plasma free fatty acid level during lipid infusion. Type of data set: in vivo. As to conditions: during lipid infusion in conscious mice.

Take `CCCCCCCCCCCCCCCC(=O)OCC(COC(=O)CCCCCCCCCCCCCCC)OC(=O)CCCCCCCCCCCCCCC` [TG-palmitate, reference compound]: the “increase in total plasma FFA levels” value is 2 fold.

Regarding `CCCCCC/C=C\CCCCCCCC(=O)OCC(COC(=O)CCCCCCC/C=C\CCCCCC)OC(=O)CCCCCCC/C=C\CCCCCC` [TG-palmitoleate], the “increase in total plasma FFA levels” value came to 2 fold.

For the origin of these results see patent US9239334B2, “Fatty acid C16: 1N7-palmitoleate a lipokine and biomarker for metabolic status” (PRESIDENT AND FELLOWS OF HARVARD COLLEGE, priority 2008, dated 2016).
